This is one part of the list.
Columns and labels:
Experiment in all cases: glycan array binding signal (z-score within array); higher = stronger binding
Details in all cases: glycan notation: IUPAC condensed, linker removed
[1] = target: GlcNAc(b1-2)Gal(b1-3)GalNAc
Summary of the method: (§1)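 The Consortium for Functional Glycomics database supplied 3228 glycan arrays, of which those lacking an available protein sequence were dropped. The binding signal, a within-array Z-score, was averaged across arrays of the same protein sequence and across linkers. Negative scores can be read as non-binding.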

[2] = target: GlcNAc(b1-2)Man(a1-3)[GlcNAc(b1-2)Man(a1-6)]Man(b1-4)GlcNAc(b1-4)GlcNAc
Summary of the method: as §1

[3] = target: GlcNAc(b1-2)Man(a1-3)[GlcNAc(b1-2)Man(a1-6)]Man(b1-4)GlcNAc(b1-4)[Fuc(a1-6)]GlcNAc
Summary of the method: as §1

[4] = target: GlcNAc(b1-2)Man(a1-3)[GlcNAc(b1-4)][GlcNAc(b1-2)Man(a1-6)]Man(b1-4)GlcNAc(b1-4)GlcNAc
Summary of the method: as §1

[5] = target: GlcNAc(b1-2)Man(a1-3)[GlcNAc(b1-4)][GlcNAc(b1-2)Man(a1-6)]Man(b1-4)GlcNAc(b1-4)[Fuc(a1-6)]GlcNAc
Summary of the method: as §1

[6] = target: GlcNAc(b1-2)[GlcNAc(b1-4)]Man(a1-3)[GlcNAc(b1-2)Man(a1-6)]Man(b1-4)GlcNAc(b1-4)GlcNAc
Summary of the method: as §1

[7] = target: GlcNAc(b1-2)[GlcNAc(b1-4)]Man(a1-3)[GlcNAc(b1-4)][GlcNAc(b1-2)Man(a1-6)]Man(b1-4)GlcNAc(b1-4)GlcNAc
Summary of the method: as §1

[8] = target: GlcNAc(b1-2)[GlcNAc(b1-4)]Man(a1-3)[GlcNAc(b1-4)][GlcNAc(b1-2)[GlcNAc(b1-6)]Man(a1-6)]Man(b1-4)GlcNAc(b1-4)GlcNAc
Summary of the method: as §1

[9] = target: GlcNAc(b1-2)[GlcNAc(b1-4)]Man(a1-3)[GlcNAc(b1-4)][GlcNAc(b1-2)[GlcNAc(b1-6)]Man(a1-6)]Man(b1-4)GlcNAc(b1-4)[Fuc(a1-6)]GlcNAc
Summary of the method: as §1

[10] = target: GlcNAc(b1-2)[GlcNAc(b1-6)]Man(a1-6)[GlcNAc(b1-2)Man(a1-3)]Man(b1-4)GlcNAc(b1-4)GlcNAc
Summary of the method: as §1

[11] = target: GlcNAc(b1-2)[GlcNAc(b1-6)]Man(a1-6)[GlcNAc(b1-2)Man(a1-3)]Man(b1-4)GlcNAc(b1-4)[Fuc(a1-6)]GlcNAc
Summary of the method: as §1

[12] = target: GlcNAc(b1-2)[GlcNAc(b1-6)]Man(a1-6)[GlcNAc(b1-4)][GlcNAc(b1-2)Man(a1-3)]Man(b1-4)GlcNAc(b1-4)GlcNAc
Summary of the method: as §1

GlcNAc(b1-3)Fuc = target: GlcNAc(b1-3)Fuc
Summary of the method: as §1

GlcNAc(b1-3)Gal = target: GlcNAc(b1-3)Gal
Summary of the method: as §1

[13] = target: GlcNAc(b1-3)Gal(b1-3)GalNAc
Summary of the method: as §1

GlcNAc(b1-3)Gal(b1-4)Glc = target: GlcNAc(b1-3)Gal(b1-4)Glc
Summary of the method: as §1

[14] = target: GlcNAc(b1-3)Gal(b1-4)GlcNAc
Summary of the method: as §1

[15] = target: GlcNAc(b1-3)Gal(b1-4)GlcNAc(b1-2)Man(a1-3)[GlcNAc(b1-3)Gal(b1-4)GlcNAc(b1-2)Man(a1-6)]Man(b1-4)GlcNAc(b1-4)GlcNAc
Summary of the method: as §1

[16] = target: GlcNAc(b1-3)Gal(b1-4)GlcNAc(b1-2)Man(a1-3)[GlcNAc(b1-3)Gal(b1-4)GlcNAc(b1-2)Man(a1-6)]Man(b1-4)GlcNAc(b1-4)[Fuc(a1-6)]GlcNAc
Summary of the method: as §1

[17] = target: GlcNAc(b1-3)Gal(b1-4)GlcNAc(b1-2)[GlcNAc(b1-3)Gal(b1-4)GlcNAc(b1-6)]Man(a1-6)[GlcNAc(b1-3)Gal(b1-4)GlcNAc(b1-2)Man(a1-3)]Man(b1-4)GlcNAc(b1-4)GlcNAc
Summary of the method: as §1

[18] = target: GlcNAc(b1-3)Gal(b1-4)GlcNAc(b1-3)Gal(b1-4)GlcNAc
Summary of the method: as §1

[19] = target: GlcNAc(b1-3)Gal(b1-4)GlcNAc(b1-3)Gal(b1-4)GlcNAc(b1-2)Man(a1-3)[GlcNAc(b1-3)Gal(b1-4)GlcNAc(b1-3)Gal(b1-4)GlcNAc(b1-2)Man(a1-6)]Man(b1-4)GlcNAc(b1-4)GlcNAc
Summary of the method: as §1

[20] = target: GlcNAc(b1-3)Gal(b1-4)GlcNAc(b1-3)Gal(b1-4)GlcNAc(b1-2)Man(a1-3)[GlcNAc(b1-3)Gal(b1-4)GlcNAc(b1-3)Gal(b1-4)GlcNAc(b1-2)Man(a1-6)]Man(b1-4)GlcNAc(b1-4)[Fuc(a1-6)]GlcNAc
Summary of the method: as §1

[21] = target: GlcNAc(b1-3)Gal(b1-4)GlcNAc(b1-3)Gal(b1-4)GlcNAc(b1-2)[GlcNAc(b1-3)Gal(b1-4)GlcNAc(b1-3)Gal(b1-4)GlcNAc(b1-6)]Man(a1-6)[GlcNAc(b1-3)Gal(b1-4)GlcNAc(b1-3)Gal(b1-4)GlcNAc(b1-2)Man(a1-3)]Man(b1-4)GlcNAc(b1-4)[Fuc(a1-6)]GlcNAc
Summary of the method: as §1

[22] = target: GlcNAc(b1-3)Gal(b1-4)GlcNAc(b1-3)Gal(b1-4)GlcNAc(b1-3)Gal(b1-4)GlcNAc(b1-2)Man(a1-3)[GlcNAc(b1-3)Gal(b1-4)GlcNAc(b1-3)Gal(b1-4)GlcNAc(b1-3)Gal(b1-4)GlcNAc(b1-2)Man(a1-6)]Man(b1-4)GlcNAc(b1-4)GlcNAc
Summary of the method: as §1

[23] = target: GlcNAc(b1-3)Gal(b1-4)GlcNAc(b1-3)Gal(b1-4)GlcNAc(b1-3)Gal(b1-4)GlcNAc(b1-2)Man(a1-3)[GlcNAc(b1-3)Gal(b1-4)GlcNAc(b1-3)Gal(b1-4)GlcNAc(b1-3)Gal(b1-4)GlcNAc(b1-2)Man(a1-6)]Man(b1-4)GlcNAc(b1-4)[Fuc(a1-6)]GlcNAc
Summary of the method: as §1

[24] = target: GlcNAc(b1-3)Gal(b1-4)GlcNAc(b1-3)Gal(b1-4)GlcNAc(b1-3)Gal(b1-4)GlcNAc(b1-2)[GlcNAc(b1-3)Gal(b1-4)GlcNAc(b1-3)Gal(b1-4)GlcNAc(b1-3)Gal(b1-4)GlcNAc(b1-6)]Man(a1-6)[GlcNAc(b1-3)Gal(b1-4)GlcNAc(b1-3)Gal(b1-4)GlcNAc(b1-3)Gal(b1-4)GlcNAc(b1-2)Man(a1-3)]Man(b1-4)GlcNAc(b1-4)[Fuc(a1-6)]GlcNAc
Summary of the method: as §1

[25] = target: GlcNAc(b1-3)Gal(b1-4)GlcNAc(b1-3)Gal(b1-4)GlcNAc(b1-3)Gal(b1-4)GlcNAc(b1-3)Gal(b1-4)GlcNAc(b1-2)Man(a1-3)[GlcNAc(b1-3)Gal(b1-4)GlcNAc(b1-3)Gal(b1-4)GlcNAc(b1-3)Gal(b1-4)GlcNAc(b1-3)Gal(b1-4)GlcNAc(b1-2)Man(a1-6)]Man(b1-4)GlcNAc(b1-4)GlcNAc
Summary of the method: as §1

[26] = target: GlcNAc(b1-3)Gal(b1-4)GlcNAc(b1-3)Gal(b1-4)GlcNAc(b1-3)Gal(b1-4)GlcNAc(b1-3)Gal(b1-4)GlcNAc(b1-2)Man(a1-3)[GlcNAc(b1-3)Gal(b1-4)GlcNAc(b1-3)Gal(b1-4)GlcNAc(b1-3)Gal(b1-4)GlcNAc(b1-3)Gal(b1-4)GlcNAc(b1-2)Man(a1-6)]Man(b1-4)GlcNAc(b1-4)[Fuc(a1-6)]GlcNAc
Summary of the method: as §1

[27] = target: GlcNAc(b1-3)Gal(b1-4)GlcNAc(b1-3)Gal(b1-4)GlcNAc(b1-3)Gal(b1-4)GlcNAc(b1-3)Gal(b1-4)GlcNAc(b1-2)[GlcNAc(b1-3)Gal(b1-4)GlcNAc(b1-3)Gal(b1-4)GlcNAc(b1-3)Gal(b1-4)GlcNAc(b1-3)Gal(b1-4)GlcNAc(b1-6)]Man(a1-6)[GlcNAc(b1-3)Gal(b1-4)GlcNAc(b1-3)Gal(b1-4)GlcNAc(b1-3)Gal(b1-4)GlcNAc(b1-3)Gal(b1-4)GlcNAc(b1-2)Man(a1-3)]Man(b1-4)GlcNAc(b1-4)[Fuc(a1-6)]GlcNAc
Summary of the method: as §1

[28] = target: GlcNAc(b1-3)Gal(b1-4)GlcNAc(b1-3)Gal(b1-4)GlcNAc(b1-3)GalNAc
Summary of the method: as §1

[29] = target: GlcNAc(b1-3)Gal(b1-4)GlcNAc(b1-3)GalNAc
Summary of the method: as §1

[30] = target: GlcNAc(b1-3)Gal(b1-4)GlcNAc(b1-3)[GlcNAc(b1-3)Gal(b1-4)GlcNAc(b1-3)]GalNAc
Summary of the method: as §1

[31] = target: GlcNAc(b1-3)Gal(b1-4)GlcNAc(b1-6)[Gal(b1-3)]GalNAc
Summary of the method: as §1

[32] = target: GlcNAc(b1-3)Gal(b1-4)GlcNAc(b1-6)[GlcNAc(b1-3)Gal(b1-3)]GalNAc
Summary of the method: as §1

[33] = target: GlcNAc(b1-3)Gal(b1-4)GlcNAc(b1-6)[GlcNAc(b1-3)]Gal(b1-4)GlcNAc
Summary of the method: as §1

GlcNAc(b1-3)GalNAc = target: GlcNAc(b1-3)GalNAc
Summary of the method: as §1

GlcNAc(b1-3)Man = target: GlcNAc(b1-3)Man
Summary of the method: as §1

[34] = target: GlcNAc(b1-3)[GlcNAc(b1-4)][GlcNAc(b1-6)]GlcNAc
Summary of the method: as §1

[35] = target: GlcNAc(b1-3)[GlcNAc(b1-6)]Gal(b1-4)GlcNAc
Summary of the method: as §1

[36] = target: GlcNAc(b1-3)[GlcNAc(b1-6)]GalNAc
Summary of the method: as §1

[37] = target: GlcNAc(b1-4)Gal(b1-4)GlcNAc
Summary of the method: as §1

GlcNAc(b1-4)GlcNAc = target: GlcNAc(b1-4)GlcNAc
Summary of the method: as §1

[38] = target: GlcNAc(b1-4)GlcNAc(b1-4)GlcNAc
Summary of the method: as §1

[39] = target: GlcNAc(b1-4)GlcNAc(b1-4)GlcNAc(b1-4)GlcNAc(b1-4)GlcNAc
Summary of the method: as §1

B1: Clone646PsrP (Streptococcus pneumoniae) (protein)
chain: MDHHHHHHHHASENLYFQGAPAINASLNIAKSETKVYTGEGVDSVYRVPIYYKLKVTNDGSKLTFTYTVTYVNPKTNDLGNISSMRPGYSIYNSGTSTQTMLTLGSDLGKPSGVKNYITDKNGRQVLSYNTSTMTTQGSGYTWGNGAQMNGFFAKKGYGLTSSWTVPITGTDTSFTFTPYAARTDRIGINYFNGGGKVVESSTTSQSLSQSKSLSVSAS
- glycan array binding signal (z-score) [1]: -0.013
- glycan array binding signal (z-score) [2]: -0.479
- glycan array binding signal (z-score) [3]: -0.521
- glycan array binding signal (z-score) [4]: 0.057
- glycan array binding signal (z-score) [5]: -0.904
- glycan array binding signal (z-score) [6]: -0.607
- glycan array binding signal (z-score) [7]: -0.698
- glycan array binding signal (z-score) [8]: -0.425
- glycan array binding signal (z-score) [9]: -0.966
- glycan array binding signal (z-score) [10]: -0.558
- glycan array binding signal (z-score) [11]: -0.71
- glycan array binding signal (z-score) [12]: -0.976
- glycan array binding signal (z-score) (GlcNAc(b1-3)Fuc): -0.086
- glycan array binding signal (z-score) (GlcNAc(b1-3)Gal): -0.961
- glycan array binding signal (z-score) [13]: -0.179
- glycan array binding signal (z-score) (GlcNAc(b1-3)Gal(b1-4)Glc): -0.488
- glycan array binding signal (z-score) [14]: -0.583
- glycan array binding signal (z-score) [15]: -0.775
- glycan array binding signal (z-score) [16]: -0.329
- glycan array binding signal (z-score) [17]: -0.515
- glycan array binding signal (z-score) [18]: -0.626
- glycan array binding signal (z-score) [19]: 0.124
- glycan array binding signal (z-score) [20]: -0.819
- glycan array binding signal (z-score) [21]: -0.864
- glycan array binding signal (z-score) [22]: -0.901
- glycan array binding signal (z-score) [23]: 0.342
- glycan array binding signal (z-score) [24]: -0.924
- glycan array binding signal (z-score) [25]: -0.39
- glycan array binding signal (z-score) [26]: -0.863
- glycan array binding signal (z-score) [27]: -0.931
- glycan array binding signal (z-score) [28]: -0.876
- glycan array binding signal (z-score) [29]: -0.586
- glycan array binding signal (z-score) [30]: -0.686
- glycan array binding signal (z-score) [31]: -0.537
- glycan array binding signal (z-score) [32]: -0.627
- glycan array binding signal (z-score) [33]: -0.875
- glycan array binding signal (z-score) (GlcNAc(b1-3)GalNAc): 0.429
- glycan array binding signal (z-score) (GlcNAc(b1-3)Man): 2.55
- glycan array binding signal (z-score) [34]: 0.396
- glycan array binding signal (z-score) [35]: -0.849
- glycan array binding signal (z-score) [36]: -0.132
- glycan array binding signal (z-score) [37]: 0.742
- glycan array binding signal (z-score) (GlcNAc(b1-4)GlcNAc): 0.726
- glycan array binding signal (z-score) [38]: 0.715
- glycan array binding signal (z-score) [39]: 0.251
